In paper PMC8231892 one finds binding data, which are given here for 1 substance.

Amino acid sequences for entries named in this document (tags omitted). Residues count along the entry.
UniProt P48995: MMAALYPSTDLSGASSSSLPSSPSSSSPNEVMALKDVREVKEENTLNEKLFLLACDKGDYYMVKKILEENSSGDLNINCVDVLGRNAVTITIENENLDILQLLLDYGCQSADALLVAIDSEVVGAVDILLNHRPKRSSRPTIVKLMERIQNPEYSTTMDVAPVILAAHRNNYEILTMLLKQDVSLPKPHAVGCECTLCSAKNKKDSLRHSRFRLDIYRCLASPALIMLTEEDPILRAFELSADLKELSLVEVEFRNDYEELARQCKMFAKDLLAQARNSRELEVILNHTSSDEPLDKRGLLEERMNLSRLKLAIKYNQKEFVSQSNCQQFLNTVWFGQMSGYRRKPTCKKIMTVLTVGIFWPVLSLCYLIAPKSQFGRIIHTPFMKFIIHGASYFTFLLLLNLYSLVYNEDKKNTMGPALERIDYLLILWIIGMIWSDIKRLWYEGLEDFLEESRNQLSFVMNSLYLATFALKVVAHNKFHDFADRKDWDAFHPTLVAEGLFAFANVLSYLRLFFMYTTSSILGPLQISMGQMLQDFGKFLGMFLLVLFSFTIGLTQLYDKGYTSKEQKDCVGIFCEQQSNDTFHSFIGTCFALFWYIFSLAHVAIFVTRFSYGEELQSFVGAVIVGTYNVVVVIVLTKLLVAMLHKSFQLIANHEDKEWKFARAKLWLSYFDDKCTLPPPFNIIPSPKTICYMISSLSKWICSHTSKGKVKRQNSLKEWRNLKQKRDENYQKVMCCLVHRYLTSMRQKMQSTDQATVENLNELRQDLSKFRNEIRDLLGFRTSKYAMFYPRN
UniProt Q13586, residues 23-685: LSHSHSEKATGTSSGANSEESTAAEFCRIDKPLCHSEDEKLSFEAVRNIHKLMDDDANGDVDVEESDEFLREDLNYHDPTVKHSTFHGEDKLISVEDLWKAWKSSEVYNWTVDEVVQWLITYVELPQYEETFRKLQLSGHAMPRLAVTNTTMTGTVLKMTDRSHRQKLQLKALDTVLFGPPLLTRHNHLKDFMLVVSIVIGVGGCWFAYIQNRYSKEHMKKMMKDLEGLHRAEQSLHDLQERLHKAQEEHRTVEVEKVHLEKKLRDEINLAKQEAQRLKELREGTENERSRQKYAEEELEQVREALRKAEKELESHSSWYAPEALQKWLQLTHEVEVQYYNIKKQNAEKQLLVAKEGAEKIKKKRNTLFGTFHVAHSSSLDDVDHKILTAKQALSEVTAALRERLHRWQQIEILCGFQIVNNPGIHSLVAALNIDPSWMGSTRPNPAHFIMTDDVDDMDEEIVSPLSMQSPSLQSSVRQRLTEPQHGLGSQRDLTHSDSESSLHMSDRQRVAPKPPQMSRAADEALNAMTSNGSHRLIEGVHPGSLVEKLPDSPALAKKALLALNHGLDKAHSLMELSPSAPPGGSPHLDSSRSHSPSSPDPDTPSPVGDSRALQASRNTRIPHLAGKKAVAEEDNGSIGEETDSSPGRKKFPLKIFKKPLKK

The target of the assay is TRPC1 (human (endogenous in U266 and MM.1s)) (UniProt P48995). Kind of assay: co-IP; endogenous proteins; U266 and MM.1s cells treated with MTI-101 (20 µM and 25 µM) for 10 min in Live Cell Imaging Solution, lysed with 1% Triton X-100 in PBS; 1 mg protein incubated with TRPC1 antibody (or host species IgG) overnight at 4 °C, protein A/G plus agarose, washed 3 times in lysis buffer, Western blot.

Results are given in words; binding and its absence hold for the method and conditions named. Binding seen in cells or lysates may run through a third protein. Some results given as binding are weak or reduced against the parent protein; the word gives no strength.

For STIM1 (from UniProt Q13586 23-685), the binding entry is given as “binds”.
